Hit rate of the full screen: of about 390,000 compounds, about 4,000 (1%) were called active. Inconclusive results, whose numbers are uncertain, are shown with a selection of clear calls. Calls come from the whole dose curve; as a rule, active = well fitted inhibition curve with a large enough effect; inconclusive = small, poorly fitted or top-dose-only effect, or another doubt; inactive = no such curve, though single readings can be large or run the other way. Potencies beside an inconclusive call are fits to weak or partial responses and may not hold up.
The molecules below were run against DNA polymerase iota (Homo sapiens) (UniProt Q9UNA4) (assay: qHTS for Inhibitors of Polymerase Iota). Conditions: Pol iota fluorescent replication assay, 10 min; series mostly up to 115 µM; activity, negative = inhibition: at the top concentration.
Outline: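 Pol iota at 10 nM preincubated 15 min with compounds at room temperature; reaction started with fluorescent substrate, 50 nM final. Fluorescence read kinetically at 0 and 10 min; buffer-only wells as negative control.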
Potency is the fitted concentration of half-maximal effect.

Amino acid sequences for entries named in this document (tags omitted). A change or cut given only in a name is not applied to a line headed by its entry.
UniProt Q9UNA4: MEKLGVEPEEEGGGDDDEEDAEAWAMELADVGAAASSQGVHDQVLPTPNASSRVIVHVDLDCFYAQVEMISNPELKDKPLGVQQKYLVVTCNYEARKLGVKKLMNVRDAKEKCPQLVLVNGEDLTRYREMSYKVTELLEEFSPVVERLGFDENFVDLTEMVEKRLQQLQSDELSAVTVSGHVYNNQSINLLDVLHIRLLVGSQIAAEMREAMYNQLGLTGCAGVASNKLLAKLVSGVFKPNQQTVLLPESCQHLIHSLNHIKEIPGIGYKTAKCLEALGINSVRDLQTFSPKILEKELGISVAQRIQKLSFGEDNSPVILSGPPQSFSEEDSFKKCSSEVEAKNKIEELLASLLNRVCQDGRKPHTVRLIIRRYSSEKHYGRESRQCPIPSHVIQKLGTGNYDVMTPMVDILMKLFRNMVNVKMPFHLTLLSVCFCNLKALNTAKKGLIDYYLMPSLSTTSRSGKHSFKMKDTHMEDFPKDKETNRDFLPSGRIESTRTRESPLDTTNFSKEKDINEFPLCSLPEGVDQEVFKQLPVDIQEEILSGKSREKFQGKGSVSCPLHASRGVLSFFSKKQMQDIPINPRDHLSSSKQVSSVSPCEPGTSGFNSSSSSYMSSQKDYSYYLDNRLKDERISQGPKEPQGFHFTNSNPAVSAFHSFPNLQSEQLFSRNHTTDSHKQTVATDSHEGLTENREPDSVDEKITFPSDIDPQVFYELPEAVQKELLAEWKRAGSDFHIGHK

For `CCOc1cc(CNCc2cccnc2)ccc1OCC(=O)NC(C)(C)C`, which Potency is on record?
The Potency was inconclusive: 79.4 µM [inhibitor, single point].

How did the “activity, negative = inhibition” value turn out when `CC1=C(c2ccc(C(C)C)cc2)S(=O)(=O)N=C1N1CCC(C(=O)Nc2ccc(C)cc2)CC1` was run?
Its value is inactive: -1.14%.

How did the Potency turn out when `O=C(CSc1nc2ccccc2s1)Nc1cc(S(=O)(=O)N2CCOCC2)ccc1O` was run?
Its Potency is inconclusive: 15.8 µM [inhibitor, partial curve, poor fit].

Which Potency does the source give for `CN(C)c1ccc(/C=C/c2ccnc3ccccc23)cc1N` here?
Its Potency is active: 79.4 µM.

For `CCc1ccccc1NC(=O)c1cc(S(=O)(=O)N2CCCC2)c[nH]1`, which Potency is on record?
The Potency was inconclusive: 89.1 µM [inhibitor, single point].

For `CC(=O)N[C@H]1[C@H]([C@H](O)[C@H](O)CO)O[C@](O)(C(=O)O)C[C@@H]1O`, which “activity, negative = inhibition” value is on record?
Its value is inactive: -11.2%.

How did the Potency turn out when `CCOc1cc(/C=C2/SC(=S)N(CC(=O)O)C2=O)ccc1OC(=O)c1cccs1` was run?
The Potency was inconclusive: 15.8 µM [inhibitor, full curve, poor fit].

Which “activity, negative = inhibition” value does the source give for `Cc1cc(C)c2c(n1)nn1c(C)c(CCC(=O)Nc3cccc(C)c3C)c(C)nc21` here?
The value was inactive: -22.5%.

How did the “activity, negative = inhibition” value turn out when `Cc1cccc(Cn2c(=O)n(-c3cc(C)cc(C)c3)c(=O)c3oc4ccccc4c32)c1` was run?
Its value is inactive: 20.2%.

Which Potency does the source give for `COc1ccc(/C=C/C(=O)C23CC4CC(CC(C4)C2)C3)cc1CN1CCOCC1` here?
The Potency was inconclusive: 89.1 µM [inhibitor, partial curve, poor fit].

`NC(=O)Cn1ccc(O)c(Cc2ccc(Cl)cc2Cl)c1=O` was tested. Which Potency did it give?
Its Potency is inconclusive: 70.8 µM [inhibitor, single point].

With `O=C(NCCS(=O)(=O)N1CCN(c2cccc(Cl)c2)CC1)C(c1ccccc1)c1ccccc1` as the molecule, how does the “activity, negative = inhibition” value read?
The value was inactive: 11.1%.

For `COc1ccc(C2=NOC(Cn3nc(C(=O)NCC4CC4)cc3-c3ccccc3)C2)cc1` (stereo unspecified), which Potency is on record?
The Potency was inconclusive: 39.8 µM [inhibitor, partial curve, poor fit].

How did the Potency turn out when `CC(C)N(C(=O)[C@H]1C[C@H](CC(=O)NC(C)(C)C)C(=O)N2CCc3c([nH]c4cc(-c5ccco5)ccc34)[C@]12C)C(C)C` was run?
Its Potency is inconclusive: 39.8 µM [inhibitor, single point].

For `N#C/C(=C\c1ccc(N2CCOCC2)o1)C(=O)NCC1CCCO1` (stereo unspecified), which “activity, negative = inhibition” value is on record?
The value was inactive: 7.29%.

`CCC1(c2ccc(Cl)cc2)NC(=S)N(c2ccccc2)N1` (stereo unspecified) was tested. Which Potency did it give?
Its Potency is inconclusive: 44.7 µM [inhibitor, partial curve, poor fit].

With `Cc1cccc(NC(=O)CSc2nc(-c3cccs3)nc3cc(=O)[nH]n23)c1` as the molecule, how does the Potency read?
Its Potency is inconclusive: 89.1 µM [inhibitor, single point].

`O=C(Nc1ccc2nc(-c3cccs3)c(-c3cccs3)nc2c1)N1CCCC1` was tested. Which “activity, negative = inhibition” value did it give?
The value was inactive: 47.5%.

`COCCNC(=O)C1(C(F)(F)F)C/C(=C/CCO)CCCO1` (stereo unspecified) was tested. Which Potency did it give?
Its Potency is inconclusive: 89.1 µM [inhibitor, single point].

`NC(=O)Nn1c(CCC(=O)O)ccc1-c1ccc(Br)cc1` was tested. Which Potency did it give?
The Potency was inconclusive: 50.1 µM [inhibitor, partial curve, poor fit].

Which Potency does the source give for `O=C(O)c1cccc(S(=O)(=O)Nc2ccc([N+](=O)[O-])cc2O)c1` here?
The Potency was inconclusive: 7.08 µM [inhibitor, partial curve, poor fit].

For `CN(C)/N=C/c1ccc(Sc2ccccc2[N+](=O)[O-])o1`, which Potency is on record?
The Potency was inconclusive: 20 µM [inhibitor, partial curve, poor fit].

Which “activity, negative = inhibition” value does the source give for `COc1ccc(CCNC(=O)c2ccc(Cn3c(=O)c4cccn4c4cccnc43)cc2)cc1OC` here?
The value was inactive: -5.92%.

How did the Potency turn out when `C#CCOCCOCCOCCNc1nc(N2CCN(C(=O)CCCCCCCCCCNC(=O)[C@H](CCCCN)n3cc(C)nn3)CC2)nc(N2CCN(C(=O)CCCCCCCCCCNC(=O)[C@H](CCCN=C(N)N)n3cc(C[C@@H](C)CC)nn3)CC2)n1` was run?
Its Potency is inconclusive: 39.8 µM [inhibitor, single point].

With `Cc1cccc(Oc2cc([N+](=O)[O-])cc3c2C(=O)Nc2ccccc2O3)c1` as the molecule, how does the Potency read?
The Potency was active: 79.4 µM.

How did the “activity, negative = inhibition” value turn out when `COCCNC(=O)c1c(NC(=O)c2cc(=O)c3cc(C)cc(C)c3o2)sc2c1CCCC2` was run?
The value was inactive: 15.5%.

For `CSc1cccc(NC(=S)N(CCN(C)C)C(C)c2ccccn2)c1` (stereo unspecified), which Potency is on record?
The Potency was inconclusive: 100 µM [inhibitor, partial curve, poor fit].

How did the Potency turn out when `O=C(/C=C/c1ccc(Br)o1)NC(c1ccccc1)c1ccccc1` was run?
The Potency was inconclusive: 35.5 µM [inhibitor, partial curve, poor fit].

For `O=C(NN1CCN(Cc2ccccc2Cl)CC1)c1ccc(Cl)cc1`, which Potency is on record?
Its Potency is inconclusive: 112 µM [inhibitor, partial curve, poor fit].

Which Potency does the source give for `O=C1CC(c2ccco2)CC2=C1C=Nc1ccccc1N2` (stereo unspecified) here?
Its Potency is inconclusive: 15.8 µM [inhibitor, full curve, poor fit].

How did the Potency turn out when `C[C@@]12C=Cc3occc3[C@H]1CC[C@]13CC(=O)[C@@H](CC[C@H]12)C3` was run?
Its Potency is inconclusive: 39.8 µM [inhibitor, partial curve, poor fit].

With `CCc1nc2cccnc2n1-c1ccc(CC(=O)O)cc1` as the molecule, how does the “activity, negative = inhibition” value read?
The value was inactive: 64.4%.

With `CCc1ccc(NC(=O)c2cnc3c(-c4ccccc4)c(C)nn3c2C)cc1` as the molecule, how does the Potency read?
Its Potency is inconclusive: 89.1 µM [inhibitor, single point].

For `O=C(Nc1ccc(Br)cc1)c1ccc2ncsc2c1`, which Potency is on record?
Its Potency is inconclusive: 25.1 µM [inhibitor, single point].

Which Potency does the source give for `CCCCCCCNC(=O)CN1N=C(c2ccc(C)cc2)CCC1=O` here?
The Potency was inconclusive: 31.6 µM [inhibitor, single point].

`CCOc1cccc(-c2nnc3sc(COc4ccccc4)nn23)c1` was tested. Which Potency did it give?
The Potency was inconclusive: 89.1 µM [inhibitor, single point].

`O=c1cc(COc2ccccc2Cl)nc2scc(-c3ccccc3)n12` was tested. Which Potency did it give?
Its Potency is inconclusive: 89.1 µM [inhibitor, single point].

How did the Potency turn out when `Cc1nn(-c2ccccn2)c2c1C(=O)CC(C)(C)C2N=[N+]=[N-]` (stereo unspecified) was run?
The Potency was inconclusive: 112 µM [inhibitor, partial curve, poor fit].

How did the Potency turn out when `COc1ccccc1NC(=O)Cn1nnc(C(=O)NCc2cccs2)c1N` was run?
The Potency was inconclusive: 79.4 µM [inhibitor, partial curve].

With `CCC(=O)N1CCc2cc(S(=O)(=O)NCCCN(CC)Cc3ccccc3)ccc21` as the molecule, how does the Potency read?
Its Potency is inconclusive: 39.8 µM [inhibitor, single point].

How did the “activity, negative = inhibition” value turn out when `COc1ccc(CC(=O)N/N=C\c2cc(Br)c(O)c(Br)c2)cc1` was run?
The value was inactive: -24%.

`COc1ccc(NC(=O)CCS(=O)(=O)c2nc(-c3ccc4c(c3)OCO4)cc(C(F)(F)F)n2)cc1OC` was tested. Which Potency did it give?
The Potency was inconclusive: 25.1 µM [inhibitor, partial curve, poor fit].

With `COc1ccc(NC(=O)CN2C(=O)NC3(CCCC3)C2=O)cc1OC` as the molecule, how does the Potency read?
The Potency was inconclusive: 112 µM [inhibitor, partial curve, poor fit].

For `CC(O)[C@@H](C(=O)N1CCNCC1)n1cc(CCCCN)nn1` (stereo partly specified), which Potency is on record?
Its Potency is inconclusive: 12.6 µM [inhibitor, full curve, poor fit].

With `c1ccc(CNc2ncnc3ccccc23)cc1` as the molecule, how does the Potency read?
The Potency was “inactive”.

For `Cc1[nH]c2c(Br)cccc2c1[C@H]1[C@@H](CC#N)C1(C)C`, which Potency is on record?
Its Potency is inconclusive: 39.8 µM [inhibitor, single point].

With `CC(C)COC(=O)C1C2C=CC3(CN(C(C)c4ccc(Br)cc4)C(=O)C13)O2` (stereo unspecified) as the molecule, how does the Potency read?
The Potency was inconclusive: 89.1 µM [inhibitor, single point].

For `c1ccc(C2CSc3ccccc3N2)cc1` (stereo unspecified), which “activity, negative = inhibition” value is on record?
Its value is inactive: 8.6%.

For `O=C(Nc1ccccc1C(=O)O)c1cccc(S(=O)(=O)Nc2ccc(Br)cc2)c1`, which Potency is on record?
Its Potency is inconclusive: 2 µM [inhibitor, full curve, poor fit].

Which “activity, negative = inhibition” value does the source give for `Cc1cc(N2CCN(c3ccc(F)cc3)CC2)nc2cc(O)ccc12` here?
The value was inactive: -18.4%.

With `Cc1nc(S(=O)(=O)N2CCN(c3ccc(Cl)cc3)CC2)cn1C` as the molecule, how does the “activity, negative = inhibition” value read?
Its value is inactive: -11.5%.

With `COc1ccccc1C1NC(=O)NC(C)=C1C(=O)OC1CCC(C)CC1` (stereo unspecified) as the molecule, how does the Potency read?
Its Potency is inconclusive: 35.5 µM [inhibitor, single point].

`Cc1cc(=O)[nH]c(SCC(=O)Nc2ccccc2C#N)c1C#N` was tested. Which Potency did it give?
Its Potency is inconclusive: 15.8 µM [inhibitor, full curve, poor fit].

With `CCCCC1CCC(C(=O)N2CC(=O)Nc3ccc(F)cc3C2c2ccc(F)cc2)CC1` (stereo unspecified) as the molecule, how does the Potency read?
Its Potency is inconclusive: 70.8 µM [inhibitor, single point].

`Cc1ccc(C(=O)N/N=C/c2ccc([N+](=O)[O-])s2)cc1` was tested. Which Potency did it give?
Its Potency is inconclusive: 3.16 µM [inhibitor, partial curve, poor fit].

`CC(=O)OCC1=C(C(=O)O)N2C(=O)C(NC(=O)C(C)Cn3nc(C)c(Cl)c3C)C2SC1` (stereo unspecified) was tested. Which Potency did it give?
The Potency was inconclusive: 14.1 µM [inhibitor, full curve, poor fit].

For `CCOc1ccc(NC(=O)/C=C/c2ccccc2)c([N+](=O)[O-])c1`, which “activity, negative = inhibition” value is on record?
The value was inactive: -5.95%.

For `CCOc1ccc(CNC(=O)c2ccc(Sc3ccc(Cl)cc3)c(NC(C)=O)c2)cc1`, which Potency is on record?
Its Potency is inconclusive: 14.1 µM [inhibitor, partial curve, poor fit].

For `O=C1CCCc2c1cc(-c1ccccc1)n2-c1ccc(O)cc1`, which “activity, negative = inhibition” value is on record?
The value was inactive: -10.4%.

For `O=c1cc(-c2ccccc2)c2ccccc2[nH]1`, which Potency is on record?
Its Potency is inconclusive: 39.8 µM [inhibitor, single point].

With `COc1ccc(/C=N/NC(=O)c2ccccc2OC)cc1COc1ccc(C)cc1` as the molecule, how does the “activity, negative = inhibition” value read?
Its value is inactive: 13.6%.

Which Potency does the source give for `CCOc1ccc(NC(=O)c2cc3sc(Cl)cc3n2CC)cc1` here?
The Potency was inconclusive: 100 µM [inhibitor, single point].

How did the “activity, negative = inhibition” value turn out when `COc1ccc(CNC(=S)NCc2ccc(Cl)cc2)cc1OC` was run?
The value was inactive: 12.9%.

`COc1cccc(=O)c2c(C)n(C)c(C)c12` was tested. Which Potency did it give?
Its Potency is active: 39.8 µM.

Which “activity, negative = inhibition” value does the source give for `CC(C)C1C(C#N)=C(N)Oc2n[nH]c(-c3ccccc3)c21` (stereo unspecified) here?
Its value is inactive: 13.8%.

`COc1ccc(C2=C(C)C(N3CCN(C(=O)c4ccco4)CC3)=NS2(=O)=O)cc1` was tested. Which Potency did it give?
Its Potency is inconclusive: 22.4 µM [inhibitor, partial curve, poor fit].
